Reference: PubChem BioAssay AID2685 (National Center for Advancing Translational Sciences (NCATS), 2010)
The list shows a part of the results. Further columns of the screen follow, without active or inactive calls. Most of these compounds were active or inconclusive in the main read-out, so they are no random draw. Potencies come from curve fits of mixed quality, noted in brackets.

Test: qHTS Assay for Lipid Storage Modulators in Drosophila S3 Cells;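 as to cell number change: cells counted by Cell Tracker Red CMTPX staining in the red channel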
Details: BODIPY lipid droplet fluorescence, 18-24 h; for cell number change: measured here: cell count max response, cells fed with added oleic acid
Method in brief: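 Laser-scanning cytometry quantifies lipid droplet accumulation (500–530 nm total intensity; droplet/cell object ratio) in oleic acid-fed (400 uM added) Drosophila S3 cells treated with a concentration series. 20 uM Triacsin C defined 100% inhibition.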

[1] = measured here: cell number channel AC50, cells fed with added oleic acid
[2] = measured here: lipid fluorescence (Fed channel) AC50, cells fed with added oleic acid

Structure (SMILES) | cell number change [%] | AC50 [1] | AC50 [2]
c1ccc2c(c1)CNC1(CCCCC1)C2 | -165 | 25.9 µM [falling, partial curve] | 23.1 µM [falling, partial curve]
COc1cc(/C=C2\SC(=Nc3ccc(Cl)c(C(=O)O)c3)NC2=O)c(Br)c(Br)c1O | -41.5 | – | 0.58 µM [falling, single point]
CCCC(C(=O)NCCC(C)C)N(Cc1ccccc1Cl)C(=O)c1snc(C(N)=O)c1N (centres undefined) | -56.4 | 10.3 µM [falling, partial curve] | 18.4 µM [falling, partial curve]
Cc1ccc(C)c(NC(=S)N/N=C/C(C)c2ccccc2)c1 (centres undefined) | 18.3 | – | 0.1 µM [rising, full curve, poor fit]
CCOC(=O)c1c(C)c(C(=O)Nc2ccc(N(C)C)cc2)c(C)n1CC | 0.598 | 0.731 µM [rising, full curve, poor fit] | 0.461 µM [rising, single point]
COc1ccc(CCNC(=O)CNC(=O)c2ccc(Br)o2)cc1OC | -51 | 23.1 µM [falling, partial curve, poor fit] | 23.1 µM [falling, partial curve]
COC(=O)c1cc2c(ccn2-c2ccc(F)cc2)n1Cc1ccc(C#N)cc1 | 13.2 | 6.51 µM [rising, single point] | 2.91 µM [falling, full curve]
CC1CCN(C(=O)COc2ncnc3ccccc23)CC1 | -56 | 0.411 µM [falling, full curve] | 0.0146 µM [falling, full curve]
CCN(CC)C(=O)C(=O)Nc1cccc(Br)c1 | 5.6 | – | 3.66 µM [falling, single point]
COc1ccc(-n2nc(C(=O)NCC(=O)N3CCCCCC3)c3ccccc3c2=O)cc1 | 0.451 | – | 29.1 µM [falling, single point]
COc1ccc(Nc2nc(N3CCCC3)nc3ccccc23)c(OC)c1 | -188 | – | –
NC(=O)c1ccc(N2CCCCCC2)c([N+](=O)[O-])c1 | -70.6 | 20.6 µM [falling, single point] | –
COc1ccc(Cl)cc1S(=O)(=O)N1CCCC(C(=O)NCc2ccccc2)C1 (centres undefined) | -3.04 | – | –
COc1ccc(CCNc2ncnc3[nH]ncc23)cc1OC | -48.5 | 23.1 µM [falling, partial curve, poor fit] | 29.1 µM [falling, single point]
O=C1CC(/C=C/c2cccnc2)=Nc2ccccc2N1 | – | – | 0.103 µM [rising, single point]
O=c1c2cc(F)ccc2[nH]c(=S)n1Cc1ccc(F)cc1 | 24.6 | – | –
COc1cc(S(=O)(=O)N2CCCC2)c(C)cc1C | -43.8 | 29.1 µM [falling, single point] | –
NC(=O)c1ccc(NC(=O)COC(=O)c2ccccc2Nc2ccccc2)cc1 | 25.4 | – | –
CCc1nc2ccc(C(=O)NCc3ccco3)cc2nc1CC | 14.1 | – | 2.06 µM [rising, partial curve]

Structure (SMILES) | cell number change [%] | AC50 [1] | AC50 [2]
CCOC(=O)CC1COCCN1Cc1cn(C)nc1-c1ccccc1F (centres undefined) | -8.92 | – | 1.3 µM [falling, partial curve]
O=C1CCN(S(=O)(=O)c2ccccc2)C2CCCCC12 (centres undefined) | -134 | 25.9 µM [falling, partial curve] | 23.1 µM [falling, partial curve]
O=C1COc2ccc(C(=O)CSc3nnc(Cc4ccccc4)o3)cc2N1 | 27.2 | – | 10.3 µM [rising, partial curve]
Cc1nnc(NC(=O)CSc2nnc(NC(=O)C(C)(C)C)s2)s1 | -3.95 | – | 0.00517 µM [falling, full curve, poor fit]
COc1ccc(CNC(=O)CSc2nnnn2-c2ccccc2)cc1 | 1.67 | – | 18.4 µM [rising, partial curve]
CCOc1ccc(-n2c(=O)c3sccc3n(CC(=O)NC3CCCCC3)c2=O)cc1 | 9.17 | 3.66 µM [rising, single point] | –
COc1cccc(N(CC(=O)NC2CCCCC2)C(=O)CCC(=O)Nc2nccs2)c1 | 562 | 20.6 µM [rising, partial curve] | 29.1 µM [rising, partial curve]
CC(=O)Nc1ccc(S(=O)(=O)NC2(C(F)(F)F)C(=O)Nc3c2c(=O)[nH]c(=O)n3Cc2ccco2)cc1 (centres undefined) | 4.18 | – | 0.146 µM [falling, full curve]
CCCn1ccc2c(OCC(=O)Nc3ccc(NC(C)=O)cc3)cccc2c1=O | -29.1 | 1.64 µM [falling, full curve, poor fit] | 29.1 µM [falling, single point]
Cc1cc(SCC2=NNC(=O)C2)c(Cl)cc1Cl | 29.2 | – | –
O=C(COc1cccnc1[N+](=O)[O-])NCc1ccc2c(c1)OCO2 | 10.2 | – | 3.26 µM [rising, partial curve]
Fc1ccccc1N1CCN(c2ncnc3nc[nH]c23)CC1 | 32.7 | 0.164 µM [rising, full curve, poor fit] | 2.06 µM [rising, full curve]
Fc1ccccc1CNc1ccc(Cl)c(Cl)c1 | -19.1 | – | 6.51 µM [rising, partial curve, poor fit]
COc1ccc(C(C)(C)C)cc1NC(=O)COC(=O)c1nc2nccc(C)n2n1 | 15 | – | 16.4 µM [rising, single point]
COc1ccc(CNC(=O)COC(=O)c2ccc(OCC3CCCO3)cc2)cc1 (centres undefined) | -18.7 | – | 0.0461 µM [falling, full curve]
CC(C)(C)c1ccc(/C([O-])=C(/C(=S)NCc2ccco2)[n+]2ccccc2)cc1 | – | 0.366 µM [falling, full curve] | 6.51 µM [falling, partial curve]
CCN(Cc1ccncc1)Cc1ccc(OC)cc1OC | 9.82 | – | 6.51 µM [rising, partial curve]
CCOC(=O)c1cc2c(=O)n3ccccc3nc2n(CC(C)C)c1=NC(=O)c1ccco1 | – | 0.259 µM [rising, full curve, poor fit] | –
CSc1ncccc1C(=O)N1CCCC(C(=O)c2ccc3ccccc3c2)C1 (centres undefined) | -17.2 | – | 18.4 µM [falling, partial curve, poor fit]

Structure (SMILES) | cell number change [%] | AC50 [1] | AC50 [2]
CC(C)C(=O)Nc1ccc(NC(=O)c2ccco2)cn1 | -7.07 | – | 0.164 µM [falling, full curve, poor fit]
Cc1cc(Sc2nnc(/N=C/N(C)C)s2)c2ccccc2n1 | -18.6 | – | 29.1 µM [falling, partial curve, poor fit]
COc1ccc2c(c1)CCCN2C(N)=O | -13.2 | – | 20.6 µM [falling, single point]
COc1ccc(NC(=O)c2sc3nc(-c4cccnc4)ccc3c2N)cc1 | 10.4 | – | –
CCN1C(=O)c2cccc3c(S(=O)(=O)Nc4ccncc4)ccc1c23 | -59.7 | 16.4 µM [falling, single point] | –
COc1ccc(NC(=O)c2ccc3ccccc3n2)cc1S(=O)(=O)N1CCCCC1 | 15.6 | – | 0.517 µM [falling, single point]
COc1ccc(NC(=O)c2ccc3c(=O)n(-c4ccc(OC)cc4OC)c(=S)[nH]c3c2)cc1 | -24.3 | – | 32.6 µM [falling, partial curve, poor fit]
O=C(NC1CC2CCCC(C1)N2Cc1cccs1)N1CCOCC1 (centres undefined) | 11.5 | 3.66 µM [falling, single point] | –
CCCOc1ccc2oc(=O)c3c(c2c1)CCCN3C(=O)CN(C)Cc1ccccc1 | 0.209 | – | 2.91 µM [rising, single point]
Cc1ccc(-n2c(SCC(=O)NCc3cccs3)nnc2-c2ccoc2C)cc1 | 48.9 | 5.8 µM [rising, partial curve] | –
Cc1ccc2[nH]c3c(=O)n(Cc4ccncc4)cnc3c2c1 | 94.4 | 6.51 µM [rising, full curve] | 3.66 µM [rising, partial curve]
CCOC(=O)N1CCN(C(=O)c2cc(COc3c(F)cccc3F)on2)CC1 | -35.4 | 7.08 µM [falling, full curve, poor fit] | –
CCN(C(=O)c1ccc2c(=O)n3c(nc2c1)CCCCC3)c1cc(OC)ccc1OC | -33.1 | 20.6 µM [falling, single point] | 0.731 µM [falling, partial curve]
Cc1ccc(C)c(N(C(=O)c2snc(C(N)=O)c2N)C(C(=O)NCC2CCCO2)c2ccc(C)o2)c1 (centres undefined) | 10.4 | – | 0.00461 µM [falling, full curve, poor fit]
Oc1ccc(Cl)cc1C=NCCc1ccccc1 | -39.5 | 2.06 µM [falling, full curve] | 0.116 µM [falling, full curve, poor fit]
O=C(NCCCO)c1cc([N+](=O)[O-])cc2c1C=Cc1ccccc1O2 | 16.7 | 6.51 µM [rising, single point] | 6.51 µM [rising, single point]
CC(=O)c1c(C)[nH]c(C(=O)Nc2ccc(F)cc2F)c1C | -12.5 | 2.31 µM [falling, partial curve] | –
CC(=O)Nc1ccc(S(=O)(=O)NCC2CCC(C(=O)NC(C)c3ccc4c(c3)OCCO4)CC2)cc1 (centres undefined) | 5.64 | – | –
CCCN(CC(=O)Nc1ccc(F)c(F)c1F)C(=O)C1CC(=O)N(Cc2ccccc2)C1 (centres undefined) | – | – | 20.6 µM [rising, single point]

18 structures from above, ordered by length of the SMILES, rising.
Structure (SMILES) | cell number change [%] | AC50 [1] | AC50 [2]
c1ccc2c(c1)CNC1(CCCCC1)C2 | -165 | 25.9 µM [falling, partial curve] | 23.1 µM [falling, partial curve]
CCN(CC)C(=O)C(=O)Nc1cccc(Br)c1 | 5.6 | – | 3.66 µM [falling, single point]
Cc1cc(SCC2=NNC(=O)C2)c(Cl)cc1Cl | 29.2 | – | –
COc1cc(S(=O)(=O)N2CCCC2)c(C)cc1C | -43.8 | 29.1 µM [falling, single point] | –
COc1ccc(CCNc2ncnc3[nH]ncc23)cc1OC | -48.5 | 23.1 µM [falling, partial curve, poor fit] | 29.1 µM [falling, single point]
CC(C)C(=O)Nc1ccc(NC(=O)c2ccco2)cn1 | -7.07 | – | 0.164 µM [falling, full curve, poor fit]
COc1ccc(CNC(=O)CSc2nnnn2-c2ccccc2)cc1 | 1.67 | – | 18.4 µM [rising, partial curve]
NC(=O)c1ccc(N2CCCCCC2)c([N+](=O)[O-])c1 | -70.6 | 20.6 µM [falling, single point] | –
COc1ccc(Nc2nc(N3CCCC3)nc3ccccc23)c(OC)c1 | -188 | – | –
Cc1nnc(NC(=O)CSc2nnc(NC(=O)C(C)(C)C)s2)s1 | -3.95 | – | 0.00517 µM [falling, full curve, poor fit]
COc1ccc(NC(=O)c2sc3nc(-c4cccnc4)ccc3c2N)cc1 | 10.4 | – | –
CSc1ncccc1C(=O)N1CCCC(C(=O)c2ccc3ccccc3c2)C1 (centres undefined) | -17.2 | – | 18.4 µM [falling, partial curve, poor fit]
O=C(NCCCO)c1cc([N+](=O)[O-])cc2c1C=Cc1ccccc1O2 | 16.7 | 6.51 µM [rising, single point] | 6.51 µM [rising, single point]
COc1ccc(NC(=O)c2ccc3ccccc3n2)cc1S(=O)(=O)N1CCCCC1 | 15.6 | – | 0.517 µM [falling, single point]
CCN(C(=O)c1ccc2c(=O)n3c(nc2c1)CCCCC3)c1cc(OC)ccc1OC | -33.1 | 20.6 µM [falling, single point] | 0.731 µM [falling, partial curve]
COc1ccc(-n2nc(C(=O)NCC(=O)N3CCCCCC3)c3ccccc3c2=O)cc1 | 0.451 | – | 29.1 µM [falling, single point]
CCCN(CC(=O)Nc1ccc(F)c(F)c1F)C(=O)C1CC(=O)N(Cc2ccccc2)C1 (centres undefined) | – | – | 20.6 µM [rising, single point]
CC(=O)Nc1ccc(S(=O)(=O)NCC2CCC(C(=O)NC(C)c3ccc4c(c3)OCCO4)CC2)cc1 (centres undefined) | 5.64 | – | –
